Consider two substances from doi:10.1101/2024.11.11.622870.

Amino acid sequences for entries named in this document (tags omitted). A change or cut given only in a name is not applied to a line headed by its entry.
UniProt P05556: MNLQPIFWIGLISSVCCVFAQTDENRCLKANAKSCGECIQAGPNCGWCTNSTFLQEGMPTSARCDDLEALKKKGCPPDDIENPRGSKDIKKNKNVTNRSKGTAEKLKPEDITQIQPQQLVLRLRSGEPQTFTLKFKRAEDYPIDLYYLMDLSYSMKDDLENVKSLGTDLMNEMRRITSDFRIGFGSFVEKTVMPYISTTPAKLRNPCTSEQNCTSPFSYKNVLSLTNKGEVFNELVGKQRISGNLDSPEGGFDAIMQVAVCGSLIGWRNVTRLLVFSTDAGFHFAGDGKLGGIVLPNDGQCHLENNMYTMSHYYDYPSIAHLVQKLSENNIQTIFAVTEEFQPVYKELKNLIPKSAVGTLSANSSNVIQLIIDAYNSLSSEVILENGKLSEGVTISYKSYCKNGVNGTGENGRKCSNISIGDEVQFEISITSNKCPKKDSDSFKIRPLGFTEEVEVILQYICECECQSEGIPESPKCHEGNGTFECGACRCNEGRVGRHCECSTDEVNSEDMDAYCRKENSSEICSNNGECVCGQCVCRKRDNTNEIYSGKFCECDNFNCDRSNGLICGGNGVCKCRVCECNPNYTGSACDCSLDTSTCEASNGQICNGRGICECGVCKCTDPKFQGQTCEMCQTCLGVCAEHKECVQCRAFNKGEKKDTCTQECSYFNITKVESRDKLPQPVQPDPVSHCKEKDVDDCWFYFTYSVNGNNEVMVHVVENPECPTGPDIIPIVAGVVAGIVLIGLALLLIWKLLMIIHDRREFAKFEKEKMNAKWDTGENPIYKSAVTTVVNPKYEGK

Where a chain is given by its changes, count along the chain named. These are yes or no findings as the source states them, for the method shown. In cells and extracts the contact can be indirect. These calls come from enrichment with a bait or labelling near it, and not all partners need be listed. For part of these data: A no says only that the protein was not detected with the bait. Sequences can lack the tags named with a protein.

One experiment addresses T1, mycBirA*-Rab25 DN (T26N) (UniProt P57735).
T1 sequence: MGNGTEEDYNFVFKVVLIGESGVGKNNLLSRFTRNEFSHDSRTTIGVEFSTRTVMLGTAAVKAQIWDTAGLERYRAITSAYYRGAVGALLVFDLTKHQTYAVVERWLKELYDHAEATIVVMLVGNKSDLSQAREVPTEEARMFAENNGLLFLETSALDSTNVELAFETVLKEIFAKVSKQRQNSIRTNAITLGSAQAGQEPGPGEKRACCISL
Nature of the experiment: proximity labelling.

The next experiment deals with T2, mycBirA*-Rab25 wt (UniProt P57735).
T2 sequence: T1 sequence with N26T
Nature of the experiment: proximity labelling.

As to FMNL1 (from UniProt O95466-2), the results for the binding entry with mycBirA*-Rab25 DN (T26N) and with mycBirA*-Rab25 wt were “no binding” and “binds”, respectively.
As to “integrin β1 (from UniProt P05556 21-798) (receptor)”, in the experiment with mycBirA*-Rab25 wt, the binding result was “binds”.
